Substitutions are numbered along the chain they refer to. These are yes or no findings as the source states them, for the method shown. For part of these data: Binding seen in cells or lysates may run through a third protein. For part of these data: Binding can be weak; no strength is given. For part of these data: Tags and fused reporters may be left off the sequences shown. Blank lines part the entries; values can stand above or below the molecule they belong to.
Legend:
[1] = molecular target: T1, FLAG-K408R Atac2 (Mus musculus) (UniProt Q8CID0); assay: in vitro SUMOylation assay (Western blot); 2.5 μg FLAG-Atac2 with 2 mM ATP, 1.0 μg His-SUMO2, 0.75 μg GST-E1 (Aos1/Uba2), 0.05 μg His-E2 (Ubc9), 2 hours at 30 °C, 50 mM Tris-HCl pH 7.6, 6 mM MgCl2, 1 mM DTT; anti-FLAG blot; covalent conjugate; both purified
T1 sequence: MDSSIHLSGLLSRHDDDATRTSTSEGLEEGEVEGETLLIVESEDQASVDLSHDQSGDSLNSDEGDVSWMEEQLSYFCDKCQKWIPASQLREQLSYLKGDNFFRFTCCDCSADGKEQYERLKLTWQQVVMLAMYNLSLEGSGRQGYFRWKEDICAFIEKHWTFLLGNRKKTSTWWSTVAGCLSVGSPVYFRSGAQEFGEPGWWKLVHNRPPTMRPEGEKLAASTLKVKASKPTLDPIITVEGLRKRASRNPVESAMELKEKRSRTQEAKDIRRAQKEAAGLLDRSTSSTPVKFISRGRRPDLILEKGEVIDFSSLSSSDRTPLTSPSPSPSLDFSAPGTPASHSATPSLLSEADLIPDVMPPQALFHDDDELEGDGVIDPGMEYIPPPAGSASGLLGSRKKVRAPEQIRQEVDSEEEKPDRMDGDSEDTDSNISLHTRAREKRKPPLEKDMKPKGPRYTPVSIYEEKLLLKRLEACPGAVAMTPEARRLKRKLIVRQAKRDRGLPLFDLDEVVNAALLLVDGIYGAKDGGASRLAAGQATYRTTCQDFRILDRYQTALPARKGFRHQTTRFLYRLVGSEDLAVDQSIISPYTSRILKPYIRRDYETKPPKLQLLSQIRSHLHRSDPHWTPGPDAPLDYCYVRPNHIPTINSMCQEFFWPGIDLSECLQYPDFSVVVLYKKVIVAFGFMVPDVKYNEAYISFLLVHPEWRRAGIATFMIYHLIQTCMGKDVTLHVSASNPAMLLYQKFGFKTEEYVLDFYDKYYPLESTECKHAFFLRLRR

By UniProt entry, the sequences of proteins in these tests, tags left out. Where a name states a change or a piece, a line headed by the entry shows the natural chain unless it says otherwise.
UniProt P61956: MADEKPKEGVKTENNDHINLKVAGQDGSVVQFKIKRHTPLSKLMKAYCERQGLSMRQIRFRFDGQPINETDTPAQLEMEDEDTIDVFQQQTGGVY

[2] = molecular target: T2, double-V5-tagged Atac2 (Mus musculus) (UniProt Q8CID0); assay: co-IP; NIH3T3 lysates (NP-40 lysis buffer with 20 mM N-ethylmaleimide), immunoprecipitation of tagged Atac2 (anti-V5), denatured, SDS-PAGE and Western blot with anti-V5 and anti-Myc; SUMO seen in upshifted bands (covalent conjugate)
T2 sequence: T1 sequence with R408K

[3] = molecular target: T3, Atac2 K749A (Mus musculus) (UniProt Q8CID0); assay: as above
T3 sequence: T1 sequence with R408K, K749A

[4] = molecular target: T4, Atac2 K305A (Mus musculus) (UniProt Q8CID0); assay: as above
T4 sequence: T1 sequence with K305A, R408K

VC-Atac2 (Mus musculus) = molecular target: T5, VC-Atac2 (Mus musculus) (UniProt Q8CID0); assay: as above
T5 sequence: T1 sequence with R408K

Atac2-V5 (Mus musculus) = molecular target: T6, Atac2-V5 (Mus musculus) (UniProt Q8CID0); assay: as above
T6 sequence: T1 sequence with R408K

[5] = molecular target: T7, Venus-Atac2 (Mus musculus) (UniProt Q8CID0); assay: as above
T7 sequence: T1 sequence with R408K

VN-SUMO2 (human) = VN-SUMO2 (human) (UniProt P61956); assay: split reporter; split Venus (VN 1-158 on SUMO2, VC 159-240 on the partner) in living NIH3T3 cells stably expressing VN-SUMO2, partner co-expressed; confocal fluorescence microscopy; read by the paper as SUMOylation (covalent)

binding [2]: binds
binding [3]: binds
binding [4]: binds
binding (VC-Atac2 (Mus musculus)): binds
binding (Atac2-V5 (Mus musculus)): binds
binding [5]: binds
Molecule: Myc-SUMO2 (from UniProt P61956)

binding (VN-SUMO2 (human)): binds
B1: VC-Atac2 (protein, UniProt Q8CID0 1-779)
chain: T1 sequence with R408K

The remaining lines, values behind:

Molecule: His-SUMO2 (from UniProt P61956)
binding [1]: no binding

Molecule: Venus-Myc-SUMO2 (from UniProt P61956)
binding (Atac2-V5 (Mus musculus)): binds

From article PMC5727073
